Measured values: doi:10.1101/2025.05.02.651988 (bioRxiv, 2025)
No constants are given. Whether binding was seen depends on the method and setting.

Sequences of proteins named here, by UniProt entry; tags and fusion partners are left off.
UniProt P0A8V2: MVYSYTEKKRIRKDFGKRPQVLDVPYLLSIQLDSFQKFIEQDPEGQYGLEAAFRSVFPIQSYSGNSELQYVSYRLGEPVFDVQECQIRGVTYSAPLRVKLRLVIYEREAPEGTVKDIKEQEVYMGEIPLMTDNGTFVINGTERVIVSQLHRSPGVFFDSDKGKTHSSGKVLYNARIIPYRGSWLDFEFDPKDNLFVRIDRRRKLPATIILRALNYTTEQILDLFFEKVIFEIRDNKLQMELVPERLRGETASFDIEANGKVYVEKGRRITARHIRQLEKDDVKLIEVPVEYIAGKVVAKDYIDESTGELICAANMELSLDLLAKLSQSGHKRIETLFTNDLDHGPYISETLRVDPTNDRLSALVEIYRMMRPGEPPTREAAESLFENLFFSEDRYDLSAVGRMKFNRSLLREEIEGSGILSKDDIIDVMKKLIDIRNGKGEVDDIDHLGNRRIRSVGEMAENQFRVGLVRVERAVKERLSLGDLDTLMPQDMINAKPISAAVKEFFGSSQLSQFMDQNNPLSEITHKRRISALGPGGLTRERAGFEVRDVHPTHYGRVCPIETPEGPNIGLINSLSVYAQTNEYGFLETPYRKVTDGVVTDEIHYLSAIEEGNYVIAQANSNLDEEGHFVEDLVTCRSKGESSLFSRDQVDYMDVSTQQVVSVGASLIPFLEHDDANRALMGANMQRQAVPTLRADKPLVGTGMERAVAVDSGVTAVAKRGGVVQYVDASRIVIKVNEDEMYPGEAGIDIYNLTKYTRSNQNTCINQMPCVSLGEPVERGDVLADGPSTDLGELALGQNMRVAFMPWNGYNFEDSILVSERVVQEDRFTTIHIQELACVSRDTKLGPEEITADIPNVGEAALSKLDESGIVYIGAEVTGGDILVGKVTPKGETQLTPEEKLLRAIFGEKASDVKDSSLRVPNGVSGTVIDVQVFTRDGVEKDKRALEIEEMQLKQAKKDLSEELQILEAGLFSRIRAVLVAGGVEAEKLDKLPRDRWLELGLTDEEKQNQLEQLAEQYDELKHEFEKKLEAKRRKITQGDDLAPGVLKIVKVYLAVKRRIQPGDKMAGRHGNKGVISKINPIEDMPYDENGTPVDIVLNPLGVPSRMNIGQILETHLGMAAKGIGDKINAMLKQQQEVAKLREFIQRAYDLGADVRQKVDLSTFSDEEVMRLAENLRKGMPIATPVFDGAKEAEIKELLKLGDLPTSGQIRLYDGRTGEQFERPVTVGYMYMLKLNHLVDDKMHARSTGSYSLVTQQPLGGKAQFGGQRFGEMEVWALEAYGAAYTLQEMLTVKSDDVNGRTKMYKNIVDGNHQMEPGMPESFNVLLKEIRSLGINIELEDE
UniProt P23848: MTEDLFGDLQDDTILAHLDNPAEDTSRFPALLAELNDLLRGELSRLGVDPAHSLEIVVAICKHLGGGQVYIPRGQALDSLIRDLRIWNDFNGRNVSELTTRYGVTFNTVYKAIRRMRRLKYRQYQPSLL

Molecular target: E. coli RNA polymerase β subunit (E. coli) (UniProt P0A8V2)
Assay: cryo-EM structure

For “phage Mu middle operon regulator Mor (from UniProt P23848 1-129)”, the binding was “no binding”.
